# Test results from PubChem BioAssay AID1671190 (National Center for Advancing Translational Sciences (NCATS), 2021).
# Chains of the proteins cited; added tags and fusions are not shown. Lines headed by an entry give the natural chain unless they say otherwise; changes in a name come on top.
# UniProt P18054: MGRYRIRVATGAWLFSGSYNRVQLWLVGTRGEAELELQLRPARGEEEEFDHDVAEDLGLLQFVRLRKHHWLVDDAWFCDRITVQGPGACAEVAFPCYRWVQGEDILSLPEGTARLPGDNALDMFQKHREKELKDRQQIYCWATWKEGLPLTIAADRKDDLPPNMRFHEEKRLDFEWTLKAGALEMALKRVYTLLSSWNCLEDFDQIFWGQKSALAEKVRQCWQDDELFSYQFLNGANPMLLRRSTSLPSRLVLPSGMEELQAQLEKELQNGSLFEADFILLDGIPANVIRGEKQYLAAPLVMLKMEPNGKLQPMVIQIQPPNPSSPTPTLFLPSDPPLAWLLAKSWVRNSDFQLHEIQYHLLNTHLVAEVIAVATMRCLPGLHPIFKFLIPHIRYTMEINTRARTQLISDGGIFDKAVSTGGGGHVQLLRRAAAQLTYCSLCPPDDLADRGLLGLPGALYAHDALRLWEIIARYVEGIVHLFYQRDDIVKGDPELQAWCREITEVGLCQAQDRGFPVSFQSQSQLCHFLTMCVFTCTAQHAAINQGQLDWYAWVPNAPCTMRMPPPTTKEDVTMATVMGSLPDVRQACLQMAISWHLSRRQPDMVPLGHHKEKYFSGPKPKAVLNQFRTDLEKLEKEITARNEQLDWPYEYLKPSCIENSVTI
# Hit rate of the full screen: of about 580,000 compounds, about 6,100 (1.1%) were called active. Inconclusive results, whose numbers are uncertain, are shown with a selection of clear calls. Calls follow the shape of the dose curve; as a rule, active = well fitted inhibition curve with a large enough effect; inconclusive = small, poorly fitted or top-dose-only effect, or another doubt; inactive = no such curve, though single readings can be large or run the other way. Potencies of inconclusive entries are doubtful fits and often do not repeat.
# Target: Polyunsaturated fatty acid lipoxygenase ALOX12 (Homo sapiens) (UniProt P18054)
# Test: Primary qHTS assay for inhibitors of human arachidonate 12S-lipoxygenase (ALOX12): Round 2
# Settings: purified 12hLO, xylenol orange hydroperoxide absorbance; activity change, negative = inhibition: at 108 µM (top of the series) unless noted
# Procedure, shortened: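 Purified human 12hLO (150 nM final) in 25 mM Hepes, 0.01% Triton X-100, pH 7.0 was preincubated 15 min at room temperature with compound. Then 40 uM arachidonic acid was added, 30 min. Hydroperoxide was read by Fe-XO absorbance ratio 573/405 nm.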
# % is scaled to controls: 0 for no effect and ±100 for the full control effect; potency is read from the fitted curve at half-maximal effect.
Compound,Potency,"activity change, negative = inhibition"
COCCN1Cc2cccc(C(=O)N3CCN(c4cc(C)ccc4C)CC3)c2C1=O,"inconclusive: 39.8 µM [inhibitor, partial curve, poor fit]",–
COc1ccc(-n2c(O)c(/C=N/NS(=O)(=O)c3cccc([N+](=O)[O-])c3)c3ccccc3c2=O)cc1OC,"inconclusive: 35.5 µM [inhibitor, partial curve]",–
CS(=O)(=O)c1ccc(N2CCN(CC3(O)CNCCOC3)CC2)c(F)c1 (configuration not stated),"inconclusive: 4.47 µM [inhibitor, full curve, poor fit]",–
COc1ccc(C(=O)N2CCCCCNC(=O)[C@@H]3CCC[C@@H]32)c(OC)n1,–,inactive: 18.4%
CC(C)OC(=O)CC1NCCNC1=O (configuration not stated),–,inactive: 29.8%
C=CCNC(=O)N1CC[C@H]2CC(=O)N(C3CCCCC3)CC[C@H]2C1,–,inactive: -2.84% [at 176 µM]
O=C(O)c1ccc2c(c1)C(=O)/C(=C\c1ccco1)C2=O,"inconclusive: 44.7 µM [inhibitor, partial curve, poor fit]",–
CCN=C1NC(CCc2ccccc2)C(C(=O)OC)=C(C)N1Cc1ccccc1C(F)(F)F (configuration not stated),"inconclusive: 7.08 µM [inhibitor, full curve, poor fit]",–
C#Cc1ccccc1OCCCN1CCC(C(O)(c2ccccc2)c2ccccc2)CC1,"inconclusive: 50.1 µM [inhibitor, partial curve, poor fit]",–
O=C(Nc1ccccc1)N1CCC(N2CC3CC(C2)[C@H]2CCCC(=O)N2C3)CC1 (some centres not stated),"inconclusive: 2.82 µM [inhibitor, full curve, poor fit]",–
OCC1(CCOc2ccccc2)CCN(Cc2ccccc2OC(F)F)CC1,–,inactive: -8.21%
CCCCn1c(N)c(N(CCC(C)C)C(=O)CSc2nc3ccccc3n2C)c(=O)[nH]c1=O,–,inactive: -18.2%
c1cc2c(cc1CN1CCCC1)CNCCO2,–,inactive: 54.2%
COC(=O)c1[nH]c(C)c(/C(O)=C2\C(=O)C(=O)N(CCCn3ccnc3)C2c2ccccc2F)c1C (configuration not stated),–,inconclusive: -31.3% [inhibitor]
Cc1ccc(OCCCCN2CCc3ccccc3C2)c(C)c1,–,inactive: -10.9%
CCc1nc(N2CCc3ccccc3C2)ncc1C(=O)O,"inconclusive: 10 µM [inhibitor, full curve]",–
CN1c2cc(C(=O)Nc3ccc4c(c3)OCCO4)ccc2C(=O)N2CCCCCC21 (configuration not stated),–,inactive: -2.77%
CCOc1ccccc1OCC(=O)N(Cc1nc2ccccc2c(=O)[nH]1)CC1CCCO1 (configuration not stated),"inconclusive: 0.398 µM [inhibitor, full curve]",–
CCc1c(C)sc(NC(=O)c2cc(-c3cccc(C)c3)nc3ccccc23)c1C#N,"inconclusive: 3.16 µM [inhibitor, full curve, poor fit]",–
COc1ccc(-c2cc(C(=O)NCc3c(C)cc(C)[nH]c3=O)c3c(c2)N(C(C)C)CCO3)cc1,–,inactive: -25.3%
CCOC(=O)c1c(C)[nH]c(C(=O)NNC(=O)c2ccc(C(C)(C)C)cc2)c1C,–,inactive: -1.88%
COCCNc1oc(-c2ccc(Cl)cc2)nc1C#N,"inconclusive: 44.7 µM [inhibitor, partial curve, poor fit]",–
O=C(CSCc1ccccc1)N1CCN(S(=O)(=O)c2ccc(F)cc2)CC1,"inconclusive: 44.7 µM [inhibitor, partial curve, poor fit]",–

Compound,Potency,"activity change, negative = inhibition"
CCCNc1c(NS(=O)(=O)c2ccc(OC)cc2)c(=O)oc2ccccc12,"inconclusive: 126 µM [inhibitor, single point]",–
OC[C@@H]1[C@@H](c2ccccc2)C(c2ccccc2)=NN1c1ccccc1,"inconclusive: 89.1 µM [inhibitor, partial curve, poor fit]",–
CC(NC(=O)COC(=O)c1ccc(N2CCCC2=O)cc1)c1ccc(F)cc1 (configuration not stated),"inconclusive: 112 µM [inhibitor, single point]",–
O=C(C1CC1)n1cc(C(=S)N2CCOCC2)c2ccccc21,"inconclusive: 89.1 µM [inhibitor, single point]",–
COC(=O)c1cnn(-c2cc(Oc3ccccc3)ncn2)c1N,–,inactive: 2.36%
O=C(C(Cl)Cl)N1CCN(Cc2ccc3c(c2)OCO3)CC1,"inconclusive: 8.91 µM [inhibitor, full curve, poor fit]",–
CCCCN=C1SC(C(=O)Nc2sc3c(c2C(=O)OC)CCC3)C(N)=C1C(=O)N1CCOCC1 (configuration not stated),–,inactive: -7.62%
COc1cccc(S(=O)(=O)N2CCCCCNC(=O)CC2c2ccccc2)c1 (configuration not stated),"inconclusive: 10 µM [inhibitor, full curve]",–
CCN(CC(=O)Nc1cccc(OC)c1)C(=O)c1cccc(S(=O)(=O)N2CCc3ccccc32)c1,"inconclusive: 112 µM [inhibitor, single point]",–
CC1CCCN(S(=O)(=O)c2ccc(C(=O)Nc3ccccc3-c3nc4ccccc4[nH]3)cc2)C1 (configuration not stated),–,inactive: 1.36%
N#Cc1c2c(c(-c3ccco3)[nH]c1=O)CCCC2,–,inactive: -18.7%
COc1ccc(-c2noc(-c3cccn3CC(=O)Nc3ccc(N(C)C)cc3)n2)cc1F,"inconclusive: 100 µM [inhibitor, single point]",–
CCNC(=S)N/N=C(/C)C1CCCCC1,"inconclusive: 39.8 µM [inhibitor, single point]",–
Cc1cc(C)nc(NS(=O)(=O)c2ccc(N/C=C\C(=O)c3ccc(Cl)cc3)cc2)n1,"inconclusive: 56.2 µM [inhibitor, partial curve, poor fit]",–
COc1ccc(S(=O)(=O)N2CCN(Cc3ccccc3[N+](=O)[O-])CC2)cc1,"inconclusive: 112 µM [inhibitor, single point]",–
O=C1CCSc2c1cccc2C(=O)Nc1ccc(F)c(Cl)c1,–,inactive: -2.66%
CCc1cccc(NC(=O)Cn2c(=O)n(Cc3ccccc3)c(=O)c3c(C)c(C(=O)N(C)C)sc32)c1,"inconclusive: 141 µM [inhibitor, partial curve, poor fit]",–
CC(C)C(CO)N1CCN(Cc2ccccc2)CCC1=O (configuration not stated),"inconclusive: 56.2 µM [inhibitor, partial curve, poor fit]",–
Cc1ccc(Cl)cc1NC(=O)CN1C(=O)NC(c2ccc(Cl)cc2)C2=C1COC2=O (configuration not stated),"inconclusive: 12.6 µM [inhibitor, partial curve, poor fit]",–
CC(=NNC(=S)N1CCN(C2CCCCCC2)CC1)c1ccccn1,"inconclusive: 56.2 µM [inhibitor, partial curve, poor fit]",–
Cc1ccc(C(=O)N2CCOc3ccc(CN4CCN(Cc5ccccn5)CC4)cc3C2)cc1,"inconclusive: 5.62 µM [inhibitor, full curve, poor fit]",–
Cc1ccc(-c2csc(NCCn3c(C(F)(F)F)nc4ccccc43)n2)cc1,–,inactive: -10.5%
O=C(NCc1ccco1)c1ccc(N2CCOCC2)c([N+](=O)[O-])c1,–,inactive: -0.45%

Compound,Potency,"activity change, negative = inhibition"
COc1ccc(Br)cc1/C=c1\sc2nc(-c3ccco3)nn2c1=O,active: 22.4 µM,–
CCc1nn2c(=O)cc(COC(=O)c3cccc(NC(=O)COc4ccccc4F)c3)nc2s1,"inconclusive: 70.8 µM [inhibitor, partial curve, poor fit]",–
CCC(C(=O)c1ccc(OC)cc1)C(=O)c1ccc(OC)cc1,"inconclusive: 50.1 µM [inhibitor, partial curve, poor fit]",–
CC(=O)N1CCN(C(=O)C[C@@H]2CCNC[C@@H]2Cc2cc(-c3ccccc3)on2)CC1,–,inactive: -2.27% [at 176 µM]
CC1CCCCN1C(C)CNC(=S)Nc1ccc(Cl)cc1Cl (configuration not stated),"inconclusive: 100 µM [inhibitor, single point]",–
COC(=O)c1ccc2nc(-c3cccc(Br)c3)c(Cc3ccsc3)n2c1,"inconclusive: 0.398 µM [inhibitor, full curve]",–
CCc1cc(C(Nc2nc(C)cc(C)n2)c2ccccc2)c(NC(=O)c2ccco2)s1 (configuration not stated),"inconclusive: 79.4 µM [inhibitor, partial curve, poor fit]",–
C=C1C(=O)OC(CCCCCCCC)C1C(=O)O (configuration not stated),"inconclusive: 24.3 µM [inhibitor, partial curve, poor fit]",–
COc1ccc(C(=O)COC(=O)c2ccc(OC(F)F)c(OC)c2)c(OC)c1,"inconclusive: 44.7 µM [inhibitor, partial curve, poor fit]",–
COc1ccccc1N1CCN(CC(=O)c2c(C)[nH]c3cc(C)ccc23)CC1,"inconclusive: 35.5 µM [inhibitor, partial curve, poor fit]",–
CCn1nccc1C(=O)N1CCC2(CC1)C(OC)C(=O)N2CC1CC1 (configuration not stated),"inconclusive: 6.31 µM [inhibitor, full curve, poor fit]",–
O=C(CSc1nccn1Cc1ccc(F)cc1)Nc1ccc(F)cc1F,–,inactive: -19.1%
O=C(/C=C/c1ccc(O)cc1)c1ccc(-c2cccs2)cc1,"inconclusive: 56.2 µM [inhibitor, partial curve, poor fit]",–
CCOC(=O)N/N=C\c1ccc([N+](=O)[O-])o1,–,inactive: -17.9%
O=S1(=O)N=C(SCCO)c2ccccc21,"inconclusive: 35.5 µM [inhibitor, partial curve, poor fit]",–
CC(=O)c1ccccc1S(=O)(=O)NCC(=O)O,"inconclusive: 3.55 µM [inhibitor, full curve, poor fit]",–
CCOc1c2ccc(C(=O)NCc3ccc(OC(F)(F)F)cc3)cc2nn1CC,"inconclusive: 39.8 µM [inhibitor, partial curve, poor fit]",–
CC(C)(C)c1ccc(C(CC(=O)O)NC(=O)c2ccccc2)cc1 (configuration not stated),–,inactive: -11.1%
CCOc1ccc(-c2[nH]ncc2-c2ccccc2OC)c(O)c1,–,inactive: -23.9%
CCCc1nnc(C[C@@H]2C[C@@H](C(C)C)[C@H](CN3CCN(c4ncccn4)CC3)C=C2C)o1,–,inactive: 47.9%
Cc1ccc(N2C(=O)C(F)(F)C2c2ccccc2)cc1 (configuration not stated),–,inactive: -10.2%

# As a short view, part of the list above:
Compound,Potency,"activity change, negative = inhibition"
CCC(C(=O)c1ccc(OC)cc1)C(=O)c1ccc(OC)cc1,"inconclusive: 50.1 µM [inhibitor, partial curve, poor fit]",–
CC(=O)N1CCN(C(=O)C[C@@H]2CCNC[C@@H]2Cc2cc(-c3ccccc3)on2)CC1,–,inactive: -2.27% [at 176 µM]
CC1CCCCN1C(C)CNC(=S)Nc1ccc(Cl)cc1Cl (configuration not stated),"inconclusive: 100 µM [inhibitor, single point]",–
COC(=O)c1ccc2nc(-c3cccc(Br)c3)c(Cc3ccsc3)n2c1,"inconclusive: 0.398 µM [inhibitor, full curve]",–
CCc1cc(C(Nc2nc(C)cc(C)n2)c2ccccc2)c(NC(=O)c2ccco2)s1 (configuration not stated),"inconclusive: 79.4 µM [inhibitor, partial curve, poor fit]",–
C=C1C(=O)OC(CCCCCCCC)C1C(=O)O (configuration not stated),"inconclusive: 24.3 µM [inhibitor, partial curve, poor fit]",–
COc1ccc(C(=O)COC(=O)c2ccc(OC(F)F)c(OC)c2)c(OC)c1,"inconclusive: 44.7 µM [inhibitor, partial curve, poor fit]",–
COc1ccccc1N1CCN(CC(=O)c2c(C)[nH]c3cc(C)ccc23)CC1,"inconclusive: 35.5 µM [inhibitor, partial curve, poor fit]",–
CCn1nccc1C(=O)N1CCC2(CC1)C(OC)C(=O)N2CC1CC1 (configuration not stated),"inconclusive: 6.31 µM [inhibitor, full curve, poor fit]",–
O=C(CSc1nccn1Cc1ccc(F)cc1)Nc1ccc(F)cc1F,–,inactive: -19.1%
O=C(/C=C/c1ccc(O)cc1)c1ccc(-c2cccs2)cc1,"inconclusive: 56.2 µM [inhibitor, partial curve, poor fit]",–
CCOC(=O)N/N=C\c1ccc([N+](=O)[O-])o1,–,inactive: -17.9%
O=S1(=O)N=C(SCCO)c2ccccc21,"inconclusive: 35.5 µM [inhibitor, partial curve, poor fit]",–
CC(=O)c1ccccc1S(=O)(=O)NCC(=O)O,"inconclusive: 3.55 µM [inhibitor, full curve, poor fit]",–
CCOc1c2ccc(C(=O)NCc3ccc(OC(F)(F)F)cc3)cc2nn1CC,"inconclusive: 39.8 µM [inhibitor, partial curve, poor fit]",–
CC(C)(C)c1ccc(C(CC(=O)O)NC(=O)c2ccccc2)cc1 (configuration not stated),–,inactive: -11.1%
CCOc1ccc(-c2[nH]ncc2-c2ccccc2OC)c(O)c1,–,inactive: -23.9%
